Results are given in words; binding and its absence hold for the method and conditions named. In cells and extracts the contact can be indirect. Some entries that bind do so weakly or less than the wild type.
Columns and labels:
[1] = target: T1, RGSZ2 (mouse (endogenous in PAG synaptosomes)) (UniProt Q9QZB0); assay: co-IP; MOR or RGSZ2 immunoprecipitated with biotinylated affinity-purified IgGs from sonicated PAG synaptosomal membranes (50 mM Tris-HCl pH 7.7, 50 mM NaCl, 1% Nonidet P-40) of mice at intervals after icv 10 nmol morphine; some mice given LNNA or naltrindole before morphine; co-precipitated proteins detected by western blot
T1 sequence: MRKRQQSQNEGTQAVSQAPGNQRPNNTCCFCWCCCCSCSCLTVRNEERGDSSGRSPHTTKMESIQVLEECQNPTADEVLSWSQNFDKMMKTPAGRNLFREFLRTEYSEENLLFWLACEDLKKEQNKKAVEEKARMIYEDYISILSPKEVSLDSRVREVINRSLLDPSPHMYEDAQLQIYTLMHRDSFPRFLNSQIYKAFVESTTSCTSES

By UniProt entry, the sequences of proteins in these tests, tags left out.
UniProt P42866: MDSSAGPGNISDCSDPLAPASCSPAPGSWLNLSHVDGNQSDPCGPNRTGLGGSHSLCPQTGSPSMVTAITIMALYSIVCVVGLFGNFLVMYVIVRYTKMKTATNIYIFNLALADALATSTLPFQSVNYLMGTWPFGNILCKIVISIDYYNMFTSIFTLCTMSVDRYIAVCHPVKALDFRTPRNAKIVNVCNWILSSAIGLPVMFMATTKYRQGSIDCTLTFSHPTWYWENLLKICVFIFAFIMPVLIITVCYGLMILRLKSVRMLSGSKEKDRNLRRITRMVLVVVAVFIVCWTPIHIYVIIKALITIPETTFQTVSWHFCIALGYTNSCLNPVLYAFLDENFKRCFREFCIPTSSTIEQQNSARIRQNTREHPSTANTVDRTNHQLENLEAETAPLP
UniProt P08752: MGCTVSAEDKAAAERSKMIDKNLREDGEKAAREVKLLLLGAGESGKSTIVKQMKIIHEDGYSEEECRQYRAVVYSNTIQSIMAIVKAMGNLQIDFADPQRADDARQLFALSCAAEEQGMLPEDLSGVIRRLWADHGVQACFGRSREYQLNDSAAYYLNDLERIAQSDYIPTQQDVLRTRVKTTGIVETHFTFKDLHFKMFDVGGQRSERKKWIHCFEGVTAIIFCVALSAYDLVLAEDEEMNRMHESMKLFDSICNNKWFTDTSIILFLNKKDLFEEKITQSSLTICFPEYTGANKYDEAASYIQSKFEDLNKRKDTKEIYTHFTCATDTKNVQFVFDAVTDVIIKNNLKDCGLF

[2] = target: Mu-opioid receptor (mouse (endogenous in PAG synaptosomes)) (UniProt P42866); assay: as above

binding [1]: binds
binding [2]: binds
Substance: Gαi2 (from UniProt P08752 1-355)

— article PMC2890584
